From US8476297B2, “TRP-M8 receptor ligands and their use in treatments” (Amgen Inc., priority 2007, dated 2013)
Some results were stated once for a whole list of compounds, not compound by compound.

Sequences of proteins named here, by UniProt entry; tags and fusion partners are left off.
UniProt Q7Z2W7, whole entry: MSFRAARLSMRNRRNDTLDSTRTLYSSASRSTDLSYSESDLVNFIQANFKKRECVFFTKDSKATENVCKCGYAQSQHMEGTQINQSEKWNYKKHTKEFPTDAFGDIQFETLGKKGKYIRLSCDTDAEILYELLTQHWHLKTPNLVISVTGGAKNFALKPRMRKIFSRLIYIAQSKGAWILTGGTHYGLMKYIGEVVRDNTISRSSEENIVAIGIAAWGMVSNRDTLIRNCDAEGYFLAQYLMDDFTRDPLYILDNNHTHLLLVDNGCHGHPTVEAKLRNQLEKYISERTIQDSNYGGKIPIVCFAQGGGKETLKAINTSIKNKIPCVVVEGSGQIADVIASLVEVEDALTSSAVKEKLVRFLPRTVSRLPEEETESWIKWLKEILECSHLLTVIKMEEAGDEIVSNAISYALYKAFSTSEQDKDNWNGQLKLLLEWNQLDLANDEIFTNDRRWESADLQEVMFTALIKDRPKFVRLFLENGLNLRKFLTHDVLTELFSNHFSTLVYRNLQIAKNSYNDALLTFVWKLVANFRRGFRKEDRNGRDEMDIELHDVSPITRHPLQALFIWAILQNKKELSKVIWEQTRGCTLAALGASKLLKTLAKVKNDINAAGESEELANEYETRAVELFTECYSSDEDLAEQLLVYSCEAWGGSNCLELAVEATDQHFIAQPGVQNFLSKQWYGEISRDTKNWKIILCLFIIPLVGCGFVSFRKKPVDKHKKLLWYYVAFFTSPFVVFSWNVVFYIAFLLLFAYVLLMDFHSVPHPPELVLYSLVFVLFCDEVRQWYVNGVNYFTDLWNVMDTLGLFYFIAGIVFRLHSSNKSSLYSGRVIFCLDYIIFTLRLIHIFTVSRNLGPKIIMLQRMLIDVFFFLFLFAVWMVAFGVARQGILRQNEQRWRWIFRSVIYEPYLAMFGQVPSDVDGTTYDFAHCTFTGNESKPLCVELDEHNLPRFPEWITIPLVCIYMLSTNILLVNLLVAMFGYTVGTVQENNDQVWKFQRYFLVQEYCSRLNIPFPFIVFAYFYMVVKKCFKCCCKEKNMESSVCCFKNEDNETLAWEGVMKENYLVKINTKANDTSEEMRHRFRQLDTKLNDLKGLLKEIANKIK

The molecules below were run against T1, human TRPM8 (Homo sapiens, UniProt Q7Z2W7) (assay: Luminescence readout assay for measuring intracellular calcium (aequorin), cold buffer activation). Conditions: stable CHO cells expressing human TRPM8 and aequorin; antagonist added 1 min prior to addition of cold buffer (<10° C.).
T1 construct: expressed in transfected cells; host or cells: CHO cells (T-REx tetracycline-inducible system, Invitrogen), co-transfected with pcDNA3.1 aequorin
Type: cell-based

IC50, < 5 µM:
O=C(Nc1cccc(C(F)(F)F)c1)N1CCc2ccccc2[C@H]1c1ccc(C(F)(F)F)cc1 [Example 107, (R)-N-(3-(trifluoromethyl)phenyl)-1-(4-(trifluoromethyl)phenyl)-3,4-dihydroisoquinoline-2(1H)-carboxamide]
O=C(Nc1nccs1)N1CCc2ccccc2[C@H]1c1ccc(C(F)(F)F)cc1 [Example 109]
O=C(NC1CC1)N1CCc2ccccc2[C@H]1c1ccc(C(F)(F)F)cc1 [Example 111, (R)—N-Cyclopropyl-1-(4-(trifluoromethyl)phenyl)-3,4-dihydroisoquinoline-2(1H)-carboxamide]
O=C(C1CCC(F)(F)CC1)N1CCc2ccccc2[C@H]1c1ccc(C(F)(F)F)cc1 [Example 112, (R)-(4,4-Difluorocyclohexyl)(1-(4-(trifluoromethyl)phenyl)-3,4-dihydroisoquinoline-2(1H)-yl)methanone]
CC(C)CNC(=O)N1CCc2ccccc2[C@H]1c1ccc(C(F)(F)F)cc1 [Example 113, (R)—N-Isobutyl-1-(4-(trifluoromethyl)phenyl)-3,4-dihydroisoquinoline-2(1H)-carboxamide]
O=C(NC1CCCC1)N1CCc2ccccc2[C@H]1c1ccc(C(F)(F)F)cc1 [Example 114, (R)—N-Cyclopentyl-1-(4-(trifluoromethyl)phenyl)-3,4-dihydroisoquinoline-2(1H)-carboxamide]
O=C(NC1CCOCC1)N1CCc2ccccc2[C@H]1c1ccc(C(F)(F)F)cc1 [Example 115, (R)—N-(Tetrahydro-2H-pyran-4-yl)-1-(4-(trifluoromethyl)phenyl)-3,4-dihydroisoquinoline-2(1H)-carboxamide]
O=C(Nc1cccnn1)N1CCc2ccccc2[C@H]1c1ccc(C(F)(F)F)cc1 [Example 117, (R)—N-(Pyridazin-3-yl)-1-(4-(trifluoromethyl)phenyl)-3,4-dihydroisoquinoline-2(1H)-carboxamide]
O=C([C@H]1CCCO1)N1CCc2ccccc2[C@H]1c1ccc(C(F)(F)F)cc1 [Example 118, ((R)-Tetrahydrofuran-2-yl)((R)-1-(4-(trifluoromethyl)phenyl)-3,4-dihydro-isoquinoline-2(1H)-yl)methanone]
C[C@@H](NC(=O)N1CCc2ccccc2[C@H]1c1ccc(C(F)(F)F)cc1)C(C)(C)C [Example 119, (R)—N—((R)-3,3-Dimethylbutan-2-yl)-1-(4-(trifluoromethyl)phenyl)-3,4-dihydroisoquinoline-2(1H)-carboxamide]
C[C@H](NC(=O)N1CCc2ccccc2[C@H]1c1ccc(C(F)(F)F)cc1)C(C)(C)C [Example 120, (R)—N—((S)-3,3-Dimethylbutan-2-yl)-1-(4-(trifluoromethyl)phenyl)-3,4-dihydroisoquinoline-2(1H)-carboxamide]
CC(C)[C@H](C)NC(=O)N1CCc2ccccc2[C@H]1c1ccc(C(F)(F)F)cc1 [Example 121, (R)—N—((S)-3,3-Methylbutan-2-yl)-1-(4-(trifluoromethyl)phenyl)-3,4-dihydro-isoquinoline-2(1H)-carboxamide]
CC1(NC(=O)N2CCc3ccccc3[C@H]2c2ccc(C(F)(F)F)cc2)CC1 [Example 122]
C#CC(C)(C)NC(=O)N1CCc2ccccc2[C@H]1c1ccc(C(F)(F)F)cc1 [Example 123, (R)—N-(2-Methylbut-3-yn-2-yl)-1-(4-(trifluoromethyl)phenyl)-3,4-dihydroisoquinoline-2(1H)-carboxamide]
N#CC1(NC(=O)N2CCc3ccccc3[C@H]2c2ccc(C(F)(F)F)cc2)CC1 [Example 124]
COc1cccc2c1CCN(C(=O)NC(C)(C)C)C2c1ccc(C(F)(F)F)cc1 (centres unmarked) [Example 145, N-tert-Butyl-5-methoxy-1-(4-(trifluoromethyl)phenyl)-3,4-dihydroisoquinoline-2(1H)-carboxamide]
CC(C)(C)NC(=O)N1CCc2c(Br)cccc2C1c1ccc(C(F)(F)F)cc1 (centres unmarked) [Example 146, 5-Bromo-N-tert-butyl-1-(4-(trifluoromethyl)phenyl)-3,4-dihydroisoquinoline-2(1H)-carboxamide]
O=C(Nc1ccc(F)cc1)N1CCc2c(Br)cccc2C1c1ccc(C(F)(F)F)cc1 (centres unmarked) [Example 147, 5-bromo-N-(4-fluorophenyl)-1-(4-(trifluoromethyl)phenyl)-3,4-dihydroisoquinoline-2(1H)-carboxamide]
COCCN(C(=O)N1CCc2ccccc2[C@H]1c1ccc(C(F)(F)F)cc1)c1ccc(F)cc1 [Example 148, (R)—N-(4-Fluorophenyl)-N-(2-methoxyethyl)-1-(4-(trifluoromethyl)phenyl)-3,4-dihydroisoquinoline-2(1H)-carboxamide]
NCCN(C(=O)N1CCc2ccccc2[C@H]1c1ccc(C(F)(F)F)cc1)c1ccc(F)cc1 [Example 149, (R)—N-(2-Aminoethyl)-N-(4-fluorophenyl)-1-(4-(trifluoromethyl)phenyl)-3,4-dihydroisoquinoline-2(1H)-carboxamide]
